Experimental data reported in PubChem BioAssay (Tox21).
Most of the hits are listed elsewhere, so they are rarer here than in the full data. Records with an inconclusive call do not appear. Calls of active or inactive are those of the source. Unless noted, calls come from the whole dose curve; as a rule, active = well fitted curve in the direction sought with a large enough effect in the repeat runs; inconclusive = weak or mixed curves; inactive = no such curve, though single readings can be large; an effect the other way counts as inactive or inconclusive.

Columns and labels:
[1] = qHTS assay to identify small molecule antagonists of the retinoid-related orphan receptor gamma (ROR-gamma) signaling pathway - cell viability counter screen (AID 1159520); conditions: Tet-on RORgamma CHO cells viability, ATP luminescence, 16 h; at 42.5 µM (top of the series); note: % is set by controls: 0 for no effect and ±100 for the full control effect; nearly all actives have a fitted effect of over 50% in size
How it was run: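 Tet-on ROR gamma CHO cells (1,000/well) were plated 4 hr, given compounds in DMSO for 2 hr at 37 C, then induced with 1 uM final doxycycline for 16 hr. Viability was read as ATP by CellTiter-Glo luminescence after 30 min.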

[2] = qHTS assay to identify small molecule agonists of the AP-1 signaling pathway - cell viability counter screen (AID 1159525; calls by dose curve; note: nearly all actives have a fitted effect of over 55% in size); conditions: ME-180 AP-1-bla cells viability, ATP luminescence, 5 h; at 35.3 µM (top of the series)
How it was run: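 ME-180 AP-1-bla, 2500 cells/well, Opti-MEM + 0.5% dialyzed FBS; overnight 37 °C; cpd 15-pt titration, 5 h 37 °C; CellTiter-Glo 30 min RT; luminescence read; normalised to TOAB and DMSO controls.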

[3] = qHTS assay to identify small molecule agonists of the RXR signaling pathway - cell viability counter screen (AID 1159529); conditions: RXR-alpha-bla HEK293T viability, CellTiter-Glo, 16 h; at 35.3 µM (top of the series); note: % is set by controls: 0 for no effect and ±100 for the full control effect; nearly all actives have a fitted effect of over 50% in size
How it was run: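 Luminescence from CellTiter-Glo (30 min, RT) measured viability in the same wells as the beta-lactamase reporter readout. Cells: GeneBLAzer RXR-alpha HEK 293T, 2% charcoal-stripped FBS. Compound exposure 16 hr, 37 C.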

[4] = qHTS assay to identify small molecule antagonists of the retinoid acid receptor (RAR) signaling pathway - cell viability counter screen (AID 1159551); conditions: C3RL4 cells viability, ATP luminescence (CellTiter-Glo), 6 h; at 42.5 µM (top of the series); note: % is set by controls: 0 for no effect and ±100 for the full control effect; nearly all actives have a fitted effect of over 35% in size
How it was run: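 Seed C3RL4 cells; next day add compound, then retinol to 1 uM final; incubate 6 h at 37 C; add CellTiter-Glo; read luminescence after 30 min at RT.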

CC(C)(C)c1ccc(O)cc1
inactive: activity, negative = cytotoxicity [1] 0.226% | viability change, negative = cytotoxic [2] 0.589% | activity change, negative = cytotoxicity [3] 1.11% | activity change, negative = cytotoxicity [4] -5.05%
